Data on seven substances can be found in US20080261871A1 (priority 2004, published 2008).

The series in a line: general procedure: Fmoc solid-phase peptide synthesis; Rink-TentaGel resin; PAL Peg-PS resin; HCTU. The conditions noted are these: whole synthesis, HPLC (methods B, C).
In the case of Glu4,Arg26]PYY, the “purity (crude or final not stated)” value amounted to 95.3%.
Turning to His26,Gln34]PP, the “purity (crude or final not stated)” value is 95.0%.
As to Ile31,Gln34]PP, the “purity (crude or final not stated)” value amounted to 97.1%.
As to Leu30,Gln34]PP, the “purity (crude or final not stated)” value is reported as 96.5%.
For [Ala1,Glu4,Arg26,Met30]PYY, the “purity (crude or final not stated)” value turned out to be 96.4%.
On to [Arg26,Met30]PYY, for which the “purity (crude or final not stated)” value is given as 91.3%.
The value for [Val31,Gln34]PP was 96.3%.
